Assay results from PubChem BioAssay AID1487 (National Center for Advancing Translational Sciences (NCATS), 2009).
Some of the results follow. Shown are side measurements of this screen, not its main read-out; they come without a call. The list favours compounds with an active or inconclusive main result. Potencies come from curve fits of mixed quality, noted in brackets.

Assay: qHTS Assay for Modulators of Lamin A Splicing
Details: HeLa LMNA splicing GFP/RFP minigene ratio, 48 h
Procedure, shortened: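 S3 HeLa cells stably expressing lamin A-EGFP splicing minigene plus DsRed2, 600 cells/well, 48 h compound exposure at 37C. Laser-scanning cytometry; analysed as GFP (500-530 nm)/RFP (575-640 nm) total intensity ratio; 0.5% DMSO vehicle.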

[1] = measured here: RFP viability control channel
[2] = measured here: GFP splicing reporter channel

SMILES | AC50 [1] | AC50 [2]
CC(C)(C)OC(=O)N1CCC(c2c(C(=O)N3CCC(c4ccccc4)C3)cnn2-c2ccc(Cl)cc2)CC1 (stereo unspecified) | 31.6 µM [rising, single point] | 
O=C(c1ccc2c(c1)OCO2)C1CCCN(Cc2ccc3cccc(F)c3n2)C1 (stereo unspecified) | 17.8 µM [falling, partial curve, poor fit] | 
COc1ccc(C2C3=C(Nc4ncnn42)c2ccccc2CC3)cc1OC (stereo unspecified) | 14.1 µM [rising, single point] | 
CC(C)COc1ccc(C(=O)N(Cc2ccco2)C2CCS(=O)(=O)C2)cc1 (stereo unspecified) | 15.8 µM [rising, single point] | 11.2 µM [rising, single point]
c1nc(NCCN2CCOCC2)c2sc3nc(N4CCOCC4)c4c(c3c2n1)CCC4 | 11.2 µM [rising, partial curve, poor fit] | 
CC1CCC(NC(=O)Cn2c3c(c(-c4ccccc4Cl)cc2=O)CCC3)CC1 (stereo unspecified) | 35.5 µM [rising, single point] | 
O=C(c1cc(-c2cccc(O)c2)on1)N1CCN(C(c2ccccc2)c2ccccc2)CC1 | 3.16 µM [falling, partial curve] | 
CCOC(=O)Nc1cc(=O)c2ccccc2o1 | 5.62 µM [falling, single point] | 6.31 µM [falling, single point]
C=CCc1ccc(OCCCCOc2ccc(C(=O)O)cc2)c(OC)c1 |  | 0.282 µM [rising, partial curve, poor fit]
Cc1cccc(CCNC(=O)c2ccc3c(c2)nc2n3CCCCC2)c1 |  | 0.708 µM [rising, full curve, poor fit]
CCOCCCNCc1cc(Br)ccc1OCc1ccccc1 | 14.1 µM [rising, single point] | 
COc1ccc2nc(NC(=O)CSc3nnnn3C3CCCCC3)sc2c1 | 35.5 µM [rising, partial curve, poor fit] | 20 µM [rising, partial curve, poor fit]
CCOC(=O)/C(=C\c1ccc(Cl)cc1)c1nc2sc(C)c(C)c2c(=O)[nH]1 | 25.1 µM [falling, single point] | 14.1 µM [falling, partial curve, poor fit]
O=C(NC(NC(=S)Nc1ccc(Cl)cc1)C(Cl)(Cl)Cl)c1ccco1 (stereo unspecified) | 25.1 µM [rising, single point] | 35.5 µM [rising, single point]
CCOC(=O)N1CCN(c2cc(NCCO)c([N+](=O)[O-])c3nonc23)CC1 |  | 0.891 µM [rising, full curve, poor fit]
CC1Cc2ccccc2N1C(=O)CSc1nnc(Cn2nnc3ccccc32)n1C (stereo unspecified) |  | 15.8 µM [rising, partial curve, poor fit]
COC(=O)c1ccccc1NC(=O)COc1ccc(S(=O)(=O)NC(C)C)cc1 | 0.00708 µM [falling, full curve, poor fit] | 
COC(=O)c1cccc(S(=O)(=O)N2CCC(n3nnc4cc(F)ccc43)CC2)c1 | 35.5 µM [rising, single point] | 35.5 µM [rising, single point]
COc1ccc(O)c(/C=N/Nc2nc(Nc3ccccc3)nc(-n3nc(C)cc3C)n2)c1 | 35.5 µM [falling, single point] | 
COc1cc(NC(=O)c2cc3ccccc3o2)c(OC)cc1Br | 1.12 µM [falling, partial curve] | 
N/C(=N\OC(=O)Cc1ccc([N+](=O)[O-])cc1)c1ccccn1 |  | 6.31 µM [falling, partial curve]
CC12CCC(=O)N1C(C(=O)OCC(=O)Nc1cccc(Br)c1)CS2 (stereo unspecified) |  | 7.94 µM [falling, full curve, poor fit]
CCOC(=O)C1CCCN(Cc2nc(N)nc(Nc3ccc(C)cc3)n2)C1 (stereo unspecified) | 14.1 µM [rising, single point] | 
O=C(/C=C/c1ccccc1)N1CCN(c2ccc([N+](=O)[O-])c(N3CCOCC3)c2)CC1 | 3.98 µM [rising, single point] | 
Cc1ccc(S(=O)(=O)Nc2cccc(-c3ccc4nnc(C)n4n3)c2)s1 |  | 6.31 µM [falling, full curve]
CCCc1nc2sc3c(c2c(=O)n1NC(=O)CCCl)CCCC3 |  | 11.2 µM [falling, partial curve, poor fit]
CCN1C(=O)c2ccccc2Sc2ccc(NC(=O)Cc3ccc(OC)cc3)cc21 |  | 2 µM [falling, full curve]
Cc1ccc(-n2c(C)cc(C(=O)COC(=O)c3c(C)noc3C)c2C)cc1 | 12.6 µM [rising, partial curve] | 

SMILES | AC50 [1] | AC50 [2]
Cc1nn(-c2ccccc2)c2sc(C(=O)N3CCc4ccccc4C3)cc12 | 11.2 µM [rising, single point] | 11.2 µM [rising, partial curve]
Cc1ccc(NC(=O)c2cccs2)cc1NC(=O)c1cccnc1 | 0.891 µM [falling, partial curve, poor fit] | 2.82 µM [falling, partial curve, poor fit]
C[C@@]12CCC(OC(=O)c3ccccc3)CC1CCc1ccccc12 (stereo partly specified) | 15.8 µM [rising, single point] | 
O=C(CN1CCC(n2nnc3cc(C(F)(F)F)ccc32)CC1)NCc1cccs1 | 17.8 µM [rising, single point] | 12.6 µM [rising, single point]
O=C(Nc1cccc(Cl)c1)c1ccc(NCCCN2CCOCC2)c([N+](=O)[O-])c1 | 0.0178 µM [falling, partial curve] | 0.0282 µM [falling, single point]
O=C(CCc1ccc(S(=O)(=O)NCc2ccccc2)cc1)NCc1ccco1 |  | 35.5 µM [rising, single point]
NNC(=S)Nc1ccccc1Cl | 22.4 µM [falling, partial curve] | 
COc1ccc(S(=O)(=O)N2CCN(C(=S)NC3CCCCC3)CC2)cc1 |  | 3.16 µM [falling, partial curve, poor fit]
COc1cccc(NS(=O)(=O)c2cc3c4c(c2)C(C)C(=O)N4CCC3)c1 (stereo unspecified) | 0.282 µM [falling, partial curve, poor fit] | 
CCc1ccc(NC(=O)c2c(C(=O)Nc3ccccc3)sc3nc(C)cc(=O)n23)cc1 |  | 0.224 µM [rising, full curve, poor fit]
COc1ccc(-n2nnnc2SCC(=O)c2ccc3c(c2)OCCO3)c(OC)c1 | 2.51 µM [rising, full curve] | 2.51 µM [rising, full curve]
COc1ccc(NC(=O)CCNS(=O)(=O)c2ccc3c(c2)CCN3C(=O)C2CC2)cc1Cl |  | 126 µM [falling, partial curve]
Cc1nc2ccc(S(=O)(=O)Nc3ccc(-c4nc5cccnc5s4)cc3)cc2s1 | 22.4 µM [rising, single point] | 
COc1ccc(-c2nnc(SCC(=O)Nc3cccc(Cl)c3C)nc2-c2ccc(OC)cc2)cc1 |  | 0.0562 µM [falling, full curve, poor fit]
O=C(NNC(=O)c1ccc(SCC2CCCO2)c([N+](=O)[O-])c1)c1ccc(F)cc1 (stereo unspecified) |  | 15.8 µM [rising, single point]
CN(Cc1ccccc1)C(=O)CC(c1ccccc1)c1cc(Cl)ccc1O (stereo unspecified) | 31.6 µM [falling, single point] | 25.1 µM [falling, single point]
Cc1ccc(CNc2ncnc3c2cnn3-c2ccc(C)cc2C)cc1 | 5.62 µM [falling, single point] | 
NC1CCN(O)C1=O (stereo unspecified) |  | 0.01 µM [rising, full curve, poor fit]
COCC(C)n1c(C)cc(C(=O)COC(=O)c2oc3ccccc3c2C)c1C (stereo unspecified) | 22.4 µM [rising, partial curve, poor fit] | 1.12 µM [rising, partial curve, poor fit]
CC(C)COc1ccc(C(=O)OCCN2CCOCC2)c(O)c1 | 12.6 µM [rising, single point] | 
CN(Cc1ccccc1)CC(O)COc1ccc(CNCCCOc2cccnc2)cc1 (stereo unspecified) | 2 µM [falling, full curve] | 2.24 µM [falling, full curve]
C/C(=N\NC(=O)c1ccc(Cn2cc(Br)cn2)o1)c1cccc(NC(=O)C(C)(C)C)c1 | 35.5 µM [rising, single point] | 1.78 µM [rising, partial curve, poor fit]
C[C@]12CCC(=O)C=C1[C@@H]1C[C@H]1[C@H]1[C@@H]3[C@@H]4C[C@H]4[C@@]4(CCC(=O)O4)[C@@]3(C)CC[C@@H]12 | 0.708 µM [rising, full curve, poor fit] | 2 µM [rising, full curve]
CN(Cc1cccc(-n2cccn2)c1)Cc1cn(C)nc1-c1ccccc1F | 0.0316 µM [falling, full curve, poor fit] | 
Cc1noc(C)c1CSc1ccccc1C(=O)N1CCN(c2ccccc2)CC1 | 31.6 µM [rising, single point] | 
CCN(CC)S(=O)(=O)c1ccc2[nH]cc(C(=O)NCCc3ccccc3)c(=O)c2c1 | 4.47 µM [rising, full curve, poor fit] | 
CCC(=O)c1ccc(N2CCN(C(=O)c3ccccc3)CC2)c(F)c1 | 5.62 µM [falling, partial curve, poor fit] | 

For convenience, some entries already given.
SMILES | AC50 [1] | AC50 [2]
COc1ccc(S(=O)(=O)N2CCN(C(=S)NC3CCCCC3)CC2)cc1 |  | 3.16 µM [falling, partial curve, poor fit]
COc1cccc(NS(=O)(=O)c2cc3c4c(c2)C(C)C(=O)N4CCC3)c1 (stereo unspecified) | 0.282 µM [falling, partial curve, poor fit] | 
CCc1ccc(NC(=O)c2c(C(=O)Nc3ccccc3)sc3nc(C)cc(=O)n23)cc1 |  | 0.224 µM [rising, full curve, poor fit]
COc1ccc(-n2nnnc2SCC(=O)c2ccc3c(c2)OCCO3)c(OC)c1 | 2.51 µM [rising, full curve] | 2.51 µM [rising, full curve]
COc1ccc(NC(=O)CCNS(=O)(=O)c2ccc3c(c2)CCN3C(=O)C2CC2)cc1Cl |  | 126 µM [falling, partial curve]
Cc1nc2ccc(S(=O)(=O)Nc3ccc(-c4nc5cccnc5s4)cc3)cc2s1 | 22.4 µM [rising, single point] | 
COc1ccc(-c2nnc(SCC(=O)Nc3cccc(Cl)c3C)nc2-c2ccc(OC)cc2)cc1 |  | 0.0562 µM [falling, full curve, poor fit]
O=C(NNC(=O)c1ccc(SCC2CCCO2)c([N+](=O)[O-])c1)c1ccc(F)cc1 (stereo unspecified) |  | 15.8 µM [rising, single point]
CN(Cc1ccccc1)C(=O)CC(c1ccccc1)c1cc(Cl)ccc1O (stereo unspecified) | 31.6 µM [falling, single point] | 25.1 µM [falling, single point]
Cc1ccc(CNc2ncnc3c2cnn3-c2ccc(C)cc2C)cc1 | 5.62 µM [falling, single point] | 
NC1CCN(O)C1=O (stereo unspecified) |  | 0.01 µM [rising, full curve, poor fit]
COCC(C)n1c(C)cc(C(=O)COC(=O)c2oc3ccccc3c2C)c1C (stereo unspecified) | 22.4 µM [rising, partial curve, poor fit] | 1.12 µM [rising, partial curve, poor fit]
CC(C)COc1ccc(C(=O)OCCN2CCOCC2)c(O)c1 | 12.6 µM [rising, single point] | 
CN(Cc1ccccc1)CC(O)COc1ccc(CNCCCOc2cccnc2)cc1 (stereo unspecified) | 2 µM [falling, full curve] | 2.24 µM [falling, full curve]
C/C(=N\NC(=O)c1ccc(Cn2cc(Br)cn2)o1)c1cccc(NC(=O)C(C)(C)C)c1 | 35.5 µM [rising, single point] | 1.78 µM [rising, partial curve, poor fit]
C[C@]12CCC(=O)C=C1[C@@H]1C[C@H]1[C@H]1[C@@H]3[C@@H]4C[C@H]4[C@@]4(CCC(=O)O4)[C@@]3(C)CC[C@@H]12 | 0.708 µM [rising, full curve, poor fit] | 2 µM [rising, full curve]
